Laboratory results: US20160046678A1 (ZYNGENIA, published 2016)
These are yes or no findings as the source states them, for the method shown. Some binding calls cover weakened binding; strength is not graded here.

T1: Angiopoietin-2 (Ang2) (human, UniProt O15123 19-496, biotin label in Examples 22-24)
T1 construct: also called rhAng2; recombinant Ang2
T1 sequence (looked up): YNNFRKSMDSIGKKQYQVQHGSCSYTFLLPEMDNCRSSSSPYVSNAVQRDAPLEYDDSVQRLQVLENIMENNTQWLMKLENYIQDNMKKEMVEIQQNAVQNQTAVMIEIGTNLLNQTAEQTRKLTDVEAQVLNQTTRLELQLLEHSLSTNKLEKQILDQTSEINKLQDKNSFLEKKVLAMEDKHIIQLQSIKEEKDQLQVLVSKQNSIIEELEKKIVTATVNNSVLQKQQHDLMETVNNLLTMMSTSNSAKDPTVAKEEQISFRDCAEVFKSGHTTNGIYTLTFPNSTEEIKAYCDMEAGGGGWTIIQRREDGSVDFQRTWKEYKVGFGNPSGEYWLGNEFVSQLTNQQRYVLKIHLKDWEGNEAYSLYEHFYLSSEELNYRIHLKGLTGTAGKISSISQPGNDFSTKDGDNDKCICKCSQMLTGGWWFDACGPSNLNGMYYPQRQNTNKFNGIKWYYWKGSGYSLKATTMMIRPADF

B1: ANG639 (peptide)
peptide: GAYDCYFYPNPPHCYGTT
B2: ANG393 (peptide)
peptide: EWAFCYSYPNPDYCHEAV
B3: ANG374 (peptide)
peptide: QYDPCEYYIPCVKWG
B4: ANG275 (peptide)
peptide: HYDKCPLLPDWVSCHEFL
B5: ANG652 (peptide)
peptide: LTLLLDDCYFYPNPPHCY
B6: ANG370 (peptide)
peptide: TYTKCMTYPNPQYCFKHS
B7: ANG644 (peptide)
peptide: LPLSWSDCYFYPNPPHCY
B8: ANG277 (peptide)
peptide: GLRKCPVLPDWVSCDNWL
B9: ANG387 (peptide)
peptide: SMWGCHMQPNYRECSLWI
B10: ANG267 (peptide)
peptide: FPPKCPLRPDWVSCHERH
B11: ANG642 (peptide)
peptide: TFIDCYFYPNPPHCYALW
B12: ANG405 (peptide)
peptide: PYEKCMTYPNPWYCFLTD
B13: ANG280 (peptide)
peptide: KCPLLPDWVSCDQWRLLE
B14: ANG376 (peptide)
peptide: RWSYCEETMIGYPYCFTRP
B15: ANG378 (peptide)
peptide: RSFECRWQPEHPICAKGV
B16: ANG274 (peptide)
peptide: KCPLLPDWVSCQEWLSSK
B17: ANG390 (peptide)
peptide: KERPCVWWKQPWCFQAS
B18: ANG382 (peptide)
peptide: VFYRCMKWPNPWWCYSQP
B19: ANG646 (peptide)
peptide: GMLDCYFYPNPPHCYLDR
B20: ANG391 (peptide)
peptide: QWFRCYEFPEPDWCRVRS
B21: ANG395 (peptide)
peptide: RYSLCMTYPNPYQCYKSN
B22: ANG385 (peptide)
peptide: TYTKCMTYPNPQYCFKHN
B23: ANG381 (peptide)
peptide: PHVICHYWKHPWCFQNS
B24: ANG339 (peptide)
peptide: PWPDCPVYRYCRHCHHKT
B25: ANG383 (peptide)
peptide: GFQRCKTFPNPHYCYKTH
B26: ANG384 (peptide)
peptide: DWSKCPKYPNPEWCYHPS
B27: ANG278 (peptide)
peptide: SGFKCPLLPDWVSCTDCT
B28: ANG388 (peptide)
peptide: PHVICHYCPHPWCFLNS
B29: ANG400 (peptide)
peptide: NTLRCYSGVLVDAMVCFTSG
B30: ANG279 (peptide)
peptide: LASKCPLLPDWISCQTWL
B31: ANG648 (peptide)
peptide: SLEDCFFYPNPTLCYNNG
B32: ANG645 (peptide)
peptide: ALLDCYFYPNPAHCYITM
B33: ANG649 (peptide)
peptide: AFSRFLDCYFYPNPQHCY
B34: ANG396 (peptide)
peptide: PHVICHYWKHPWCFHNS
B35: ANG398 (peptide)
peptide: LYDRCVCFPNLFWCEMTT
B36: ANG404 (peptide)
peptide: SWAQCYAYPNPDFCNRSG
B37: ANG270 (peptide)
peptide: SPVKCPFLPDWISCDLYL
B38: ANG375 (peptide)
peptide: GFHRCSTFPNPHYCYKTH
B39: ANG269 (peptide)
peptide: ECPLLPDWVSCHEWNRLH
B40: ANG281 (peptide)
peptide: YFDKCPLLPDWLTCHEWM
B41: ANG403 (peptide)
peptide: QYDPCEYDIPCVKWG
B42: ANG638 (peptide)
peptide: LTPSGSDCYFYPNPLHCY
B43: ANG637 (peptide)
peptide: TYLQIIECYFYPNPPHCY
B44: ANG651 (peptide)
peptide: EEGSSSDCYFYPNPRHCY
B45: ANG647 (peptide)
peptide: SGTECYFYPNPPHCYSSD
B46: ANG407 (peptide)
peptide: MYAMCQWHPSPEQCRSPS
B47: ANG380 (peptide)
peptide: ILLRCAWYPAPPWCNIET
B48: ANG284 (peptide)
peptide: LPSKCPLLPDWTSCDEYL
B49: ANG272 (peptide)
peptide: TAFKCPPLPDWVSCLDWL
B50: ANG371 (peptide)
peptide: RFLECAWFPTPYFCHESE
B51: ANG650 (peptide)
peptide: GVYSFLECSFFPNPPYCY
B52: ANG377 (peptide)
peptide: AAFMLSCHSTDGQSWACMESH
B53: ANG399 (peptide)
peptide: RSLACEFHPQKYHVQCALPH
B54: ANG641 (peptide)
peptide: GFLTFYDCYFFPNPPHCF
B55: ANG643 (peptide)
peptide: ASDILLDCYFFPNPPHCR
B56: ANG406 (peptide)
peptide: PYERCTKHPNPTYCWKNL
B57: ANG654 (peptide)
peptide: REQDCFFYPNPPHCYVDN
B58: ANG653 (peptide)
peptide: LFHSMTDCYFYPNPRHCY
B59: ANG358 (peptide)
peptide: LPMECYFYPNPEHCYLVP
B60: ANG394 (peptide)
peptide: TYRKCMTYPNPHYCFKHS
B61: ANG397 (peptide)
peptide: PWFSCYYFPNPSHCMDVV
B62: ANG355 (peptide)
peptide: TGSTAKYCQDYPGWRYCH
B63: ANG389 (peptide)
peptide: LELPCGKYPNMWFCYKVA
B64: ANG640 (peptide)
peptide: YLNHNYECYFFPNPTHCY

These binders were tested against T1, Angiopoietin-2 (Ang2) (assay: Example 48, method not detailed).

binding | Binder
binds | B1
binds | B2
binds | B3
binds | B4
binds | B5
binds | B6
binds | B7
binds | B8
binds | B9
binds | B10
binds | B11
binds | B12
binds | B13
binds | B14
binds | B15
binds | B16
binds | B17
binds | B18
binds | B19
binds | B20
binds | B21
binds | B22

binding | Binder
binds | B23
binds | B24
binds | B25
binds | B26
binds | B27
binds | B28
binds | B29
binds | B30
binds | B31
binds | B32
binds | B33
binds | B34
binds | B35
binds | B36
binds | B37
binds | B38
binds | B39
binds | B40
binds | B41
binds | B42
binds | B43
binds | B44

binding | Binder
binds | B45
binds | B46
binds | B47
binds | B48
binds | B49
binds | B50
binds | B51
binds | B52
binds | B53
binds | B54
binds | B55
binds | B56
binds | B57
binds | B58
binds | B59
binds | B60
binds | B61
binds | B62
binds | B63
binds | B64
